Substitutions are numbered along the chain they refer to. The list shows a part of the results. For some of these results: At the low end of the ranking the order means little.
Columns and labels:
Conditions in all cases: yeast three-hybrid, YBZ-1, SC-Leu-His + 0.5 mM 3-AT, 4 days
[1] = biological target: T1, PUM1 PUF domain R1-AWR S863A + R864W + Q867R (Homo sapiens) (UniProt Q14671)
T1 sequence: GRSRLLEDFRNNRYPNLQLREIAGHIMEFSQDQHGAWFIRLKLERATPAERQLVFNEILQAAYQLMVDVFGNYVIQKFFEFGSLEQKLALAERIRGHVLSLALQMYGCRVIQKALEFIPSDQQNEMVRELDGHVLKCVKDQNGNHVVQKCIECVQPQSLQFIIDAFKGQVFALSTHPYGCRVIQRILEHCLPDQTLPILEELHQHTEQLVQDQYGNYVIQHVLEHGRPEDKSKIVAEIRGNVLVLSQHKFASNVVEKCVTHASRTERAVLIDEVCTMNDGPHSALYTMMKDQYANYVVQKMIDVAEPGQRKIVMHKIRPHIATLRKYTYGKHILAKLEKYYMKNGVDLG

[2] = biological target: T2, PUM1 PUF domain R1-CFK S863C + R864F + Q867K (Homo sapiens) (UniProt Q14671)
T2 sequence: T1 sequence with A36C, W37F, R40K

[3] = biological target: T3, PUM1 PUF domain R1-CRR S863C + Q867R (Homo sapiens) (UniProt Q14671)
T3 sequence: T1 sequence with A36C, W37R

[4] = biological target: T4, PUM1 PUF domain R1-FAR S863F + R864A + Q867R (UniProt Q14671)
T4 sequence: T1 sequence with A36F, W37A

[5] = biological target: T5, PUM1 PUF domain R1-FGR S863F + R864G + Q867R (UniProt Q14671)
T5 sequence: T1 sequence with A36F, W37G

[6] = biological target: T6, PUM1 PUF domain R1-GCK S863G + R864C + Q867K (Homo sapiens) (UniProt Q14671)
T6 sequence: T1 sequence with A36G, W37C, R40K

[7] = biological target: T7, PUM1 PUF domain R1-GCR S863G + R864C + Q867R (Homo sapiens) (UniProt Q14671)
T7 sequence: T1 sequence with A36G, W37C

[8] = biological target: T8, PUM1 PUF domain R1-GFR S863G + R864F + Q867R (Homo sapiens) (UniProt Q14671)
T8 sequence: T1 sequence with A36G, W37F

[9] = biological target: T9, PUM1 PUF domain R1-GGQ S863G + R864G (Homo sapiens) (UniProt Q14671)
T9 sequence: T1 sequence with A36G, W37G, R40Q

[10] = biological target: T10, PUM1 PUF domain R1-GGR S863G + R864G + Q867R (Homo sapiens) (UniProt Q14671)
T10 sequence: T1 sequence with A36G, W37G

[11] = biological target: T11, PUM1 PUF domain R1-GHR S863G + R864H + Q867R (Homo sapiens) (UniProt Q14671)
T11 sequence: T1 sequence with A36G, W37H

[12] = biological target: T12, PUM1 PUF domain R1-GIR S863G + R864I + Q867R (Homo sapiens) (UniProt Q14671)
T12 sequence: T1 sequence with A36G, W37I

[13] = biological target: T13, PUM1 PUF domain R1-GLR S863G + R864L + Q867R (Homo sapiens) (UniProt Q14671)
T13 sequence: T1 sequence with A36G, W37L

[14] = biological target: T14, PUM1 PUF domain R1-CCK S863C + R864C + Q867K (Homo sapiens) (UniProt Q14671)
T14 sequence: T1 sequence with A36C, W37C, R40K

[15] = biological target: T15, PUM1 PUF domain R1-GFE S863G + R864F + Q867E (UniProt Q14671)
T15 sequence: T1 sequence with A36G, W37F, R40E

[16] = biological target: T16, PUM1 PUF domain R1-CGE S863C + R864G + Q867E (Homo sapiens) (UniProt Q14671)
T16 sequence: T1 sequence with A36C, W37G, R40E

[17] = biological target: T17, PUM1 PUF domain R1-CWR S863C + R864W + Q867R (Homo sapiens) (UniProt Q14671)
T17 sequence: T1 sequence with A36C

[18] = biological target: T18, PUM1 PUF domain R1-ERV S863E + Q867V (Homo sapiens) (UniProt Q14671)
T18 sequence: T1 sequence with A36E, W37R, R40V

[19] = biological target: T19, PUM1 PUF domain R3-GFW C935G + R936F + Q939W (Homo sapiens) (UniProt Q14671)
T19 sequence: T1 sequence with A36S, W37R, R40Q, C108G, R109F, Q112W

[20] = biological target: T20, PUM1 PUF domain R3-VRV C935V + Q939V (Homo sapiens) (UniProt Q14671)
T20 sequence: T1 sequence with A36S, W37R, R40Q, C108V, Q112V

Sequence: GGCUAGAACUAGUGGAUCCCCCGGCGCCCGGCGGCUCGAGCCCGGGUAAGUGUAAAUGGUCUGCAUGCCGCCGGGCGCCAUGCCUGCAGGUCGACUCUAGAAAACAUG
- binding signal (log2 enrichment (interaction score)) [1]: -1.67
- binding signal (log2 enrichment (interaction score)) [2]: 0.08
- binding signal (log2 enrichment (interaction score)) [3]: -1.54
- binding signal (log2 enrichment (interaction score)) [4]: -3.67
- binding signal (log2 enrichment (interaction score)) [5]: -3.04
- binding signal (log2 enrichment (interaction score)) [6]: 0.26
- binding signal (log2 enrichment (interaction score)) [7]: 0.78
- binding signal (log2 enrichment (interaction score)) [8]: -2.1
- binding signal (log2 enrichment (interaction score)) [9]: -0.95
- binding signal (log2 enrichment (interaction score)) [10]: -0.74
- binding signal (log2 enrichment (interaction score)) [11]: -0.81
- binding signal (log2 enrichment (interaction score)) [12]: -1.52
- binding signal (log2 enrichment (interaction score)) [13]: -0.65

Sequence: GGCUAGAACUAGUGGAUCCCCCGGCGCCCGGCGGCUCGAGCCCGGGUAAGUGUAAAUCGUCUGCAUGCCGCCGGGCGCCAUGCCUGCAGGUCGACUCUAGAAAACAUG
- binding signal (log2 enrichment (interaction score)) [14]: -0.26
- binding signal (log2 enrichment (interaction score)) [15]: -3.19

Sequence: GGCUAGAACUAGUGGAUCCCCCGGCGCCCGGCGGCUCGAGCCCGGGUAAGUGUAAAUUGUCUGCAUGCCGCCGGGCGCCAUGCCUGCAGGUCGACUCUAGAAAACAUG
- binding signal (log2 enrichment (interaction score)) [16]: -1.38
- binding signal (log2 enrichment (interaction score)) [17]: 0.67
- binding signal (log2 enrichment (interaction score)) [18]: -0.27

Sequence: GGCUAGAACUAGUGGAUCCCCCGGCGCCCGGCGGCUCGAGCCCGGGUAAGUGUAAGUAGUCUGCAUGCCGCCGGGCGCCAUGCCUGCAGGUCGACUCUAGAAAACAUG
- binding signal (log2 enrichment (interaction score)) [19]: -1.23
- binding signal (log2 enrichment (interaction score)) [20]: -1.68

Sequence: GGCUAGAACUAGUGGAUCCCCCGGCGCCCGGCGGCUCGAGCCCGGGUAAGUGUAAUUAGUCUGCAUGCCGCCGGGCGCCAUGCCUGCAGGUCGACUCUAGAAAACAUG
- binding signal (log2 enrichment (interaction score)) [19]: -1.17
- binding signal (log2 enrichment (interaction score)) [20]: -0.81

From publication PMC8384837
